Data taken from ChEMBL document CHEMBL3988442, “University of Dundee, Small-Polar-MMV Screening Library” (2021).

Sequences of proteins named here, by UniProt entry; tags and fusion partners are left off.
UniProt E9BF75, entry or part of it: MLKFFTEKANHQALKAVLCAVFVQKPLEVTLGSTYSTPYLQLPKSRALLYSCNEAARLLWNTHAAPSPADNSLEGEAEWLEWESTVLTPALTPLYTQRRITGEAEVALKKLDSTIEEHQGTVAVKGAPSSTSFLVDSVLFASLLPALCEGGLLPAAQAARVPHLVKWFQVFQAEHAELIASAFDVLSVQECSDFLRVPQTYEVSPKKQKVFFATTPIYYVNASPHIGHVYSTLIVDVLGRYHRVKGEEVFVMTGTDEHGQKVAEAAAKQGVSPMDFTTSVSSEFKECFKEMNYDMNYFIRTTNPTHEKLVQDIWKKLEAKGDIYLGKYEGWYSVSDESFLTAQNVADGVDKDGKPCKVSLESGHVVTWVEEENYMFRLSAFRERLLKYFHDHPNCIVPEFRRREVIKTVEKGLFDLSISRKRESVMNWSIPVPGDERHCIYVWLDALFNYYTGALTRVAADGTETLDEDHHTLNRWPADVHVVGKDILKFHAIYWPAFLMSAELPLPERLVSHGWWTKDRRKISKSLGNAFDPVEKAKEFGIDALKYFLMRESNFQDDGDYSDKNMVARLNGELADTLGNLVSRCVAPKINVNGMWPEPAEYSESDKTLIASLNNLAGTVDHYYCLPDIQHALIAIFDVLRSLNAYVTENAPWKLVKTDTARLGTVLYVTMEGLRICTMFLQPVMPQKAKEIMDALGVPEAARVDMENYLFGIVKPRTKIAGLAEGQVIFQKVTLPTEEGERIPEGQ

Results are percentages, as filed.
How 0% and 100% were set is not recorded. Most values in the screen are low, and negative values occur.
Compounds were drawn at random from those tested, without regard to their results.

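Primary screen of methionyl-tRNA synthetase; the read-out is not stated. Target: Methionyl-tRNA synthetase (putative), Leishmania donovani (UniProt E9BF75). The test concentration is not given. Values are per cent inhibition. About 68,000 compounds were tested under these conditions; 0.035% (about 24) showed 50% or more at least once.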

Result for Cc1ccc(F)c(S(=O)(=O)NCc2cccc(N3CCOC3=O)c2)c1 was 11.98%.
Result for CCc1ncc2c(n1)CN(CCCc1nc3ccccc3o1)CC2 was 28.31%.
Result for O=C(NCC(=O)N1CC2(CCCC2)c2c(F)cccc21)C1CC1 was 8.803%.
Result for CC(C)c1csc(C2CCCN(C(=O)Cn3ccccc3=O)C2)n1 (stereo not given) was 0%.
Result for O=C1CN(Cc2occc2C(=O)NCCc2ccc(F)cc2)CCN1 was 13.96%.
Result for NCC1Cn2nnc(-c3cccc(F)c3)c2CO1 (stereo not given) was 5.512%.
Result for Cn1cc(CN2CCCN(C(=O)c3cn4ccccc4n3)CC2)cn1 was 6.748%.
Result for CN(Cc1ccc2c(c1)OCO2)C(=O)c1ccn(C)c(=O)c1 was 3.377%.
Result for COc1cccc(-c2ncc3c(n2)N(C)CCN(CCN(C)C)C3=O)c1 was 11.89%.
Result for CC(C)(Oc1ccc(F)cc1)C(=O)NCc1ccco1 was 14.54%.
Result for CCN1CCNC(=O)C12CCN(C(=O)c1ccccn1)CC2 was 2.198%.
Result for COC(=O)c1ccc(S(=O)(=O)N(C)CC(N)=O)c(Cl)c1 was 9.22%.
Result for Cc1nc(NC(=O)NC2CC(=O)N(C(C)C)C2)nn1C(C)C (stereo not given) was 16.85%.
Result for COCC1CN(c2ncccn2)Cc2cnn(CC3CC3)c21 (stereo not given) was 15.06%.
Result for Cc1cc(N2CCCC2)nc(N(C)CCO)c1C#N was 14.48%.
Result for Cc1cc(C(O)CCNC(=O)COc2ccccc2F)c(C)o1 (stereo not given) was 10.07%.
Result for CC1CCN(C(=O)CCN2Cc3ccccc3C[C@H]2C(N)=O)C1 (stereo not given in full) was 11.78%.
Result for Nc1nccc(NCc2cc3n(n2)CCCN(C(=O)C2CCC2)C3)n1 was 17.5%.
Result for CN1CCC/C1=N\S(=O)(=O)c1ccc(NC(=O)CCc2cccs2)cc1 was 12.89%.
Result for COCCOCC(=O)N1CCC(O)(c2ccc3nc(C)ccc3c2)CC1 was 15.36%.
Result for O=S(=O)(c1c(Cl)nc2sccn12)N1CCCC2(CCNC2)C1 (stereo not given) was 15.81%.
Result for Cc1cnc(N2CCCC(c3ccccc3)C2)nc1-c1ccnn1C (stereo not given) was 5.455%.
Result for c1cnc(NC[C@@H]2CCC[C@@H]3CN(Cc4cc[nH]n4)C[C@@H]32)nc1 was 17.14%.
Result for O=C(NC1(c2nccs2)CCCC1)c1cc(C2CC2)on1 was 14.98%.
Result for Cn1nnc(NCc2ccc(-c3ccc(Br)cc3)o2)n1 was 12.23%.
Result for c1c2c(nn1CC1CC1)C(CNC1CCOCC1)OCC2 (stereo not given) was 11.28%.
Result for CCC(C)NC(=O)Nc1cccc(OCC#N)c1 (stereo not given) was 7.542%.
Result for O=C(CC1CC1)N1CCC2(CCCN(c3ncccn3)C2)CC1 was 14.84%.
Result for CCNC(=O)[C@@H]1C[C@H](N)CN1C(=O)C1(c2ccc(OC)cc2)CCCC1 was 15.79%.
Result for CCc1n[nH]c(C2CN(C(=O)c3ccnc(C4CC4)n3)CCO2)n1 (stereo not given) was 13.81%.
Result for COCC(=O)N1C[C@H](N(C)Cc2cncnc2)[C@H]2OCCC[C@H]21 was 14.99%.
Result for CSCC[C@@H](CO)Nc1ccc(-c2nc(-c3ccccc3C)no2)cn1 was 8.014%.
Result for COCC(=O)N1CCC(c2cccc(Cc3ccc(F)cc3)n2)CC1 was 9.932%.
Result for CN(CCc1ccccn1)[C@@H]1CCN(c2cc(C(N)=O)ccn2)C[C@H]1O was 13.71%.
Result for Cc1cccc(-c2ccc(C(=O)N3CCSCC3)c(=O)[nH]2)c1 was 10.3%.
Result for CCOc1ncccc1CNC(=O)c1c(C)oc(C)c1C was 18.42%.
Result for Cc1n[nH]c(C)c1CNC(=O)N1CCCC(Cc2nccn2C)C1 (stereo not given) was 14.99%.
Result for COc1ccccc1N1CCN(C(=O)Cn2nc(C)c(Cl)c2C)CC1 was 4.715%.
Result for Cc1cccc(N2CC[C@@H]3[C@@H](CO[C@H]3CNS(C)(=O)=O)C2)n1 was 11.68%.
Result for CC(=O)N1CCC(C(=O)NCc2ncc(-c3ccccc3)o2)CC1 was 15.45%.
Result for CCN(CC1CCOC1)C(=O)c1ccc(N(C)C)cc1F (stereo not given) was 10.5%.
Result for CC(C)c1noc(CN2CCN(CCO)CC2)n1 was 10.53%.
Result for CSc1ccc(-c2nc(CN3C[C@@H](C)NC[C@@H]3C)c(C)o2)cc1 was 14.63%.
Result for Cn1cc(Br)cc1C(=O)NC1(C#N)CC1 was 11.7%.
Result for CCS(=O)(=O)N1CC[C@H]2O[C@H](c3nc(C)no3)CC[C@H]21 was 21.04%.
Result for CCCNC(=O)CCC(=O)n1nc(C)c2ccccc21 was 6.197%.
Result for COCCN(C)CCN1CC2(CCN(C3CCOC3)CC2)OC1=O (stereo not given) was 20.74%.
Result for CC(C)COCC1CN(Cc2ccco2)Cc2ncn(C)c21 (stereo not given) was 4.636%.
Result for CCC(=O)N1CCC2(CC1)CC(N1CCOCC1)c1cc(C)ccc12 (stereo not given) was 8.042%.
Result for Cc1noc(C)c1C(=O)N1Cc2ncn(C)c2C(COCC2CC2)C1 (stereo not given) was 12.47%.
Result for O=C(CSC1CCCC1)N1CCN(C(=O)C2CC2c2ccccc2)CC1 (stereo not given) was 16.55%.
Result for Cc1nc2ccccc2nc1CN1CCCC(Cn2cncn2)C1 (stereo not given) was 15.46%.
Result for CC(C)N(C)Cc1cnc2n1CCN(S(=O)(=O)c1ccccc1)C2 was -17.44%.
Result for CC(=O)N1CCO[C@@H]2CN(S(=O)(=O)c3cccs3)CC[C@@H]2C1 was 5.464%.
Result for COc1cc(OC)cc(C(=O)NCc2nn(C)c3c2COCC3)c1 was -9.934%.
Result for CC1c2ncc(Cn3cccn3)n2CCN1S(C)(=O)=O (stereo not given) was -2.346%.
Result for O=C1CO[C@@H]2CN(Cc3cccs3)C[C@H]2N1CC1CC1 was 15.02%.
Result for COCC(O)CN1CCC(=O)N(CC=C(C)C)Cc2ccccc21 (stereo not given) was 8.493%.

For reference, 3 entries once more:

Result for O=S(=O)(c1c(Cl)nc2sccn12)N1CCCC2(CCNC2)C1 (stereo not given) was 15.81%.
Result for CCN(CC1CCOC1)C(=O)c1ccc(N(C)C)cc1F (stereo not given) was 10.5%.
Result for O=C(CSC1CCCC1)N1CCN(C(=O)C2CC2c2ccccc2)CC1 (stereo not given) was 16.55%.